Source: PubChem BioAssay AID1508615 (Milbrandt Lab, Department of Genetics, Washington …, 2020)
The whole screen tested about 1,600 compounds, of which about 20 (1%) were called active.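 How the source made its calls: active means ratio of uncleaved NAD to its breakdown product ADP-ribose above 4, meaning the enzyme was inhibited; inactive means the rest.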 Some of the results follow.

By UniProt entry, the sequences of proteins in these tests, tags left out. Where a name states a change or a piece, a line headed by the entry shows the natural chain unless it says otherwise.
UniProt Q6SZW1: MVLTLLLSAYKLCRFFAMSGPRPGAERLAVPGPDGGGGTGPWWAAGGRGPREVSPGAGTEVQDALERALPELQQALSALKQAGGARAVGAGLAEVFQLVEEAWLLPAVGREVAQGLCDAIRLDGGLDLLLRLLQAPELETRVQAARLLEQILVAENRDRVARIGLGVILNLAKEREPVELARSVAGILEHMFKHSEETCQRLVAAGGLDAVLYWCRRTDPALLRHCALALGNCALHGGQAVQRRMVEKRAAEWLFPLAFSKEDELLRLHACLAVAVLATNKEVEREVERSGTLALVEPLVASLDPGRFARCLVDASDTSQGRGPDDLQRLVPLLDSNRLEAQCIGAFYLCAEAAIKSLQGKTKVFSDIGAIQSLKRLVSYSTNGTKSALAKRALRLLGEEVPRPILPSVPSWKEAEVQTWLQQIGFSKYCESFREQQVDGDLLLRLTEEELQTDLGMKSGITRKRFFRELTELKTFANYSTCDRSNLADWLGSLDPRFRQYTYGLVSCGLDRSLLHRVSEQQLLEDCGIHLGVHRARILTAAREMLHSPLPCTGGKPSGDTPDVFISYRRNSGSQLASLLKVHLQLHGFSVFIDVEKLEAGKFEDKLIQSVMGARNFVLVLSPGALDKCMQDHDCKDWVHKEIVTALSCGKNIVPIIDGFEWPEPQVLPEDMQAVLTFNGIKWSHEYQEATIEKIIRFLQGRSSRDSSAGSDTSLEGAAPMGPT

The compounds below were run against NAD(+) hydrolase SARM1 (Homo sapiens) (UniProt Q6SZW1) (assay: SARM1 TIR NADase inhibitors by HPLC, primary screen, cell lysate, HPLC readout (AID 1508615;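 further: substrate NAD at 5 µM with 60 min at 37 °C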)). Details: HEK293T SAM-TIR lysate, at 5 µM, hits give high values.
Cc1nnc(Cc2ccccc2)c2n[nH]c(C)c12 was tested, and the NAD/ADPR ratio was inactive: 3. With Oc1ccc(N=Nc2nccs2)c(O)c1 the NAD/ADPR ratio was inactive: 3. NNC(=O)CNc1cccc(Br)c1 was tested, and the NAD/ADPR ratio was inactive: 3. With O=C(Nc1cc(-c2ccccc2)[nH]n1)c1ccc(Cl)cc1 the NAD/ADPR ratio was inactive: 3. In the case of Nc1nc(Nc2ccccc2)n[nH]1, the NAD/ADPR ratio was inactive: 3. O=C(Nc1cccc([N+](=O)[O-])c1)c1cc2ccccc2cc1O was tested, and the NAD/ADPR ratio was inactive: 3. O=C(Nc1ccc2ncccc2c1)Nc1ccc2ncccc2c1 was tested, and the NAD/ADPR ratio was inactive: 3. COc1ccc(N=Nc2c(N)n[nH]c2N)cc1 was tested, and the NAD/ADPR ratio was inactive: 3. For Cc1cccc2cc3cccc(C)c3nc12, the NAD/ADPR ratio was inactive: 3. For O=C1C(Cl)=C(O)C2(Cl)C(Cl)=C(Cl)C12Cl (centres undefined), the NAD/ADPR ratio was inactive: 3. In the case of CCOC(=O)c1cnc(SCC)[nH]c1=O, the NAD/ADPR ratio was inactive: 3. With CSc1nc(N)c(C(=O)NC2CCCCC2)s1 the NAD/ADPR ratio was inactive: 3. For COC(=O)c1c[n+]([O-])ccc1OC, the NAD/ADPR ratio was inactive: 3. With COc1ccc(C(=S)N2CCN(c3ccccc3Cl)CC2)cc1OC the NAD/ADPR ratio was inactive: 3. NC(=O)c1ncn2c(=O)n(CCCl)nnc12 was tested, and the NAD/ADPR ratio was inactive: 3. For CC1OC1c1ccc(-c2ccc(C3OC3C)cc2)cc1 (centres undefined), the NAD/ADPR ratio was inactive: 3. In the case of CN(C)CCCN1c2ccc3ccccc3c2Sc2cccc(Cl)c21, the NAD/ADPR ratio was inactive: 3. O=C(NCc1ccco1)Nc1ccc([N+](=O)[O-])cc1 was tested, and the NAD/ADPR ratio was inactive: 3. In the case of O=C(O)C1=NN(c2cc(Cl)c(S(=O)(=O)O)cc2Cl)C(=O)C1, the NAD/ADPR ratio was inactive: 3. In the case of CCC(C)Oc1nc2c(c(=O)n(C)c(=O)n2C)n1C (centres undefined), the NAD/ADPR ratio was inactive: 3. For O=C(Nc1ccc(Br)cc1)Nc1ccccc1Cl, the NAD/ADPR ratio was inactive: 3. With C[C@]12CCC3c4ccc(OCC(=O)O)cc4CCC3C1CCC2=O (some centres undefined) the NAD/ADPR ratio was inactive: 3. For CCCCCCC(C)OC(=O)c1ccccc1C(=O)O (centres undefined), the NAD/ADPR ratio was inactive: 3. With Clc1cc2c(c(CSc3nc4ccccc4n4cccc34)c1)OCOC2 the NAD/ADPR ratio was inactive: 3. With c1ccc(-c2ccc3c(c2)NC(C2Nc4cc(-c5ccccc5)ccc4O2)O3)cc1 (centres undefined) the NAD/ADPR ratio was inactive: 3. For Cc1cc(NC(=O)Nc2cc(Cl)ccc2C)no1, the NAD/ADPR ratio was inactive: 3. In the case of ClN=C1C=CC=CC1=NCl, the NAD/ADPR ratio was inactive: 3. For CN(C)N1C(=O)c2c(Cl)c(Cl)c(Cl)c(Cl)c2C1=O, the NAD/ADPR ratio was inactive: 3. In the case of N#CC1=C(Nc2ccccc2Cl)SC(c2ccncc2)NC1=O (centres undefined), the NAD/ADPR ratio was inactive: 3. For Clc1nnc2c3ccccc3ccn12, the NAD/ADPR ratio was inactive: 3. Cc1nc(N)[nH]c(=O)c1CCCNc1ccc(CCC2(CCl)OCCO2)cc1 was tested, and the NAD/ADPR ratio was inactive: 3. CC1=CC2C(C(O)CC3(C)C2CC(C)C32OCOC23COCO3)C2(C)C/C(=C/O)C(=O)C=C12 (centres undefined) was tested, and the NAD/ADPR ratio was inactive: 3. For NC(N)=Nc1nc2ccc([N+](=O)[O-])cc2[nH]1, the NAD/ADPR ratio was inactive: 3. For C=C(C)CN=CC1(C)CCC(C)=CO1 (centres undefined), the NAD/ADPR ratio was inactive: 3. O=C1OCC/C1=C\c1ccc(O)cc1 was tested, and the NAD/ADPR ratio was inactive: 3. For O=C(Cn1ccc(=O)[nH]c1=O)Nc1ccc(C(=O)O)c(O)c1, the NAD/ADPR ratio was inactive: 3. c1ccc2sc(SCSc3nc4ccccc4s3)nc2c1 was tested, and the NAD/ADPR ratio was inactive: 3. For O=S1(=O)CCC(N(/N=C/c2ccco2)c2ccccc2)C1 (centres undefined), the NAD/ADPR ratio was inactive: 3. For CCCNC(=O)Nc1ccc(C)cc1C, the NAD/ADPR ratio was inactive: 3. For S=c1[nH]c2cc(-c3ccccc3)ccc2o1, the NAD/ADPR ratio was inactive: 3. For COc1ccc(C(=S)N2CCN(c3cccc(Cl)c3)CC2)cc1, the NAD/ADPR ratio was inactive: 3. For C/C(=N\O)C1CC(CC(=O)O)C1(C)C (centres undefined), the NAD/ADPR ratio was inactive: 3. With CCOC(=O)c1nnsc1-c1ccc(-c2snnc2C(=O)OCC)cc1 the NAD/ADPR ratio was inactive: 3. CNC(=O)Nc1ccc(S(N)(=O)=O)cc1 was tested, and the NAD/ADPR ratio was inactive: 3. For O=C(Oc1ccc[nH]c1=O)c1cccc(Cl)c1, the NAD/ADPR ratio was inactive: 3. For Cc1ccc2nc(Cl)cc(=O)n2c1, the NAD/ADPR ratio was inactive: 3. In the case of C(=C\c1ccc(/C=C/c2ccccc2)nn1)/c1ccccc1, the NAD/ADPR ratio was inactive: 3. In the case of O=C(O)c1ccc2c(c1Nc1ccccc1)C(=O)c1ccccc1C2=O, the NAD/ADPR ratio was inactive: 3. For CSc1nc(=O)[nH]nc1Sc1ccccc1, the NAD/ADPR ratio was inactive: 3. For COC(=O)c1c(-c2ccccc2)[nH]c(-c2nccc3ccccc23)c1C(=O)OC, the NAD/ADPR ratio was inactive: 3. With Cn1c(=O)c2c(nc(Cc3ccccc3)n2C)n(C)c1=O the NAD/ADPR ratio was inactive: 3. With O=C1c2ccccc2C(=O)c2[nH]cnc21 the NAD/ADPR ratio was inactive: 3. COC(=O)c1ccc(C(=O)OC)c(=O)[nH]1 was tested, and the NAD/ADPR ratio was inactive: 3. In the case of Cc1cc(=O)c2c(C)ccc(C)c2[nH]1, the NAD/ADPR ratio was inactive: 3. With Cc1cccc(Nc2sc(C(=O)c3cc4cc(Cl)ccc4o3)c(N)c2C#N)c1 the NAD/ADPR ratio was inactive: 3. For Cc1ccc(NC(=O)Nc2c(Cl)cccc2Cl)cn1, the NAD/ADPR ratio was inactive: 3. N#CC1=C(Nc2ccccc2Cl)SC(c2ccccc2O)NC1=O (centres undefined) was tested, and the NAD/ADPR ratio was inactive: 3. In the case of CC1CCC(C(C)C)C(NC(=O)c2ccncc2)C1 (centres undefined), the NAD/ADPR ratio was inactive: 3. With CN(C)S(=O)(=O)Nc1cccc(Br)c1 the NAD/ADPR ratio was inactive: 3. CN(C)S(=O)(=O)Nc1ccccn1 was tested, and the NAD/ADPR ratio was inactive: 3. In the case of COc1ccccc1/C=C/C(=O)/C=C/c1ccccc1O, the NAD/ADPR ratio was inactive: 3. Cc1nc2cc[nH]n2c(=O)c1CCc1ccccc1 was tested, and the NAD/ADPR ratio was inactive: 3. With CC(=O)[C@H]1CC[C@H]2[C@@H]3CCC4=CC(=O)C=C[C@]4(C)[C@H]3C(=O)C[C@]12C the NAD/ADPR ratio was inactive: 3. In the case of COC(=O)Cc1[nH]c(=S)[nH]c1C(=O)OC, the NAD/ADPR ratio was inactive: 3. For COCCn1c2nc(=O)n(-c3ccccc3)c(=O)c-2nc2ccccc21, the NAD/ADPR ratio was inactive: 3. In the case of C=CCNC(=S)NCC=C, the NAD/ADPR ratio was inactive: 3. In the case of O=C1C2C3C=CC(CC3)C2S(=O)(=O)C2C3C=CC(CC3)C12 (centres undefined), the NAD/ADPR ratio was inactive: 3. For Cc1cccc(NC(=S)Nc2cccc(C)n2)n1, the NAD/ADPR ratio was inactive: 3. With Cn1cnc([N+](=O)[O-])c1Sc1ncn[nH]1 the NAD/ADPR ratio was inactive: 3. In the case of CCSc1nc(O)cc(=O)[nH]1, the NAD/ADPR ratio was inactive: 3. Oc1ccc(Nc2ccnc3cc(Cl)ccc23)cc1 was tested, and the NAD/ADPR ratio was inactive: 3. For Cc1ccc(NC(=O)N2CCCCC2)cc1NC(=O)N1CCCCC1, the NAD/ADPR ratio was inactive: 3. In the case of CCOC(=O)N1C/C(=C\c2ccccc2)C(=O)/C(=C/c2ccccc2)C1, the NAD/ADPR ratio was inactive: 3. With OC(c1cc(C(F)(F)F)nc2c(Cl)cc(Cl)cc12)C1CCCCN1 (centres undefined) the NAD/ADPR ratio was inactive: 3. In the case of COc1cnc(SC)nc1Nc1ccc(C#N)cc1, the NAD/ADPR ratio was inactive: 3. In the case of O=C(Nc1ccc(Oc2ccc(NC(=O)Nc3ccc([N+](=O)[O-])cc3)cc2)cc1)Nc1ccc([N+](=O)[O-])cc1, the NAD/ADPR ratio was inactive: 3. NC(N)=NCCCS(=O)(=O)Nc1ccc(Nc2c3ccccc3nc3cc([N+](=O)[O-])ccc23)cc1 was tested, and the NAD/ADPR ratio was inactive: 3. In the case of O=c1c2ccccc2ncn1-c1ccc(Cl)cc1, the NAD/ADPR ratio was inactive: 3. In the case of S=C1NC2(CCCCCC2)NN1c1ccccc1, the NAD/ADPR ratio was inactive: 3. With Fc1ccc(-c2cc(-c3cccs3)cc(-c3ccccc3)n2)cc1 the NAD/ADPR ratio was inactive: 3. In the case of CCOc1nc(OCC)c2cnn(C)c2n1, the NAD/ADPR ratio was inactive: 3. With Oc1cc(CNC2CCCCC2)c(O)cc1CNC1CCCCC1 the NAD/ADPR ratio was active: 10.8. With NC(=O)c1ccc(N=Nc2c(O)c3ccccc3[nH]c2=O)cc1 the NAD/ADPR ratio was inactive: 3. With CCc1c(N=O)c(-c2ccccc2)n(O)[n+]1[O-] the NAD/ADPR ratio was inactive: 3. With Nc1cc([N+](=O)[O-])ccc1N1C(=O)CCCC1=O the NAD/ADPR ratio was inactive: 3. For COC1OC(O)C(NC(=O)C(F)(F)F)CC1O (centres undefined), the NAD/ADPR ratio was inactive: 3. For O=C(Nc1ccc(C(=O)O)c(O)c1)c1ccccc1, the NAD/ADPR ratio was inactive: 3. With Cc1nc2[nH]c(=O)n(O)c(=O)c2s1 the NAD/ADPR ratio was inactive: 3. S=c1nc[nH]c2c1ncn2C1CCCO1 (centres undefined) was tested, and the NAD/ADPR ratio was inactive: 3. Cc1ccccc1OCC(O)CN1CCN(c2ccc(Cl)cc2)CC1 (centres undefined) was tested, and the NAD/ADPR ratio was inactive: 3. With CC(=O)OCCn1c2nc(=O)[nH]c(=O)c-2nc2cc(C)c(C)cc21 the NAD/ADPR ratio was inactive: 3. Cn1cnc2ncnn2c1=S was tested, and the NAD/ADPR ratio was inactive: 3. COc1cc(NCc2ccccc2O)c2ncccc2c1 was tested, and the NAD/ADPR ratio was inactive: 3. With O=C(/C=C/c1cccnc1)/C=C/c1cccnc1 the NAD/ADPR ratio was inactive: 3. N#Cc1cnn(-c2cccc(Cl)c2)c1-n1cccc1 was tested, and the NAD/ADPR ratio was inactive: 3. With COc1cc(CCC(=O)O)on1 the NAD/ADPR ratio was inactive: 3. In the case of CC1=NN(c2ccccc2)C(=O)C1C(=S)SC1CC(=O)NC1=O (centres undefined), the NAD/ADPR ratio was inactive: 3. With Nc1ccc(NC(=O)c2ccc(C(=O)Nc3ccc(N)cc3)cc2)cc1 the NAD/ADPR ratio was inactive: 3. In the case of CCOP(=O)(OCC)/C(C#N)=C/c1c[nH]c2ccccc12, the NAD/ADPR ratio was inactive: 3. For S=C(Sc1ccc(Cl)cc1)Sc1ccc(Cl)cc1, the NAD/ADPR ratio was inactive: 3. For O=c1[nH]c2ccccc2n1C1=CCNCC1, the NAD/ADPR ratio was inactive: 3. For Cn1c(=O)c2[nH]c(CCCc3ccc([N+](=O)[O-])cc3)nc2n(C)c1=O, the NAD/ADPR ratio was inactive: 3. In the case of Cn1c2c(sc1=O)CCC2, the NAD/ADPR ratio was inactive: 3. For Oc1c(N=Nc2nn[nH]n2)ccc2ccccc12, the NAD/ADPR ratio was inactive: 3. For COc1ccc2nc(-c3ccc(Cl)cc3)cc(C(=O)O)c2c1, the NAD/ADPR ratio was inactive: 3. CCCC1OC(c2cc3c(cc2Cl)OCO3)OCC1CC (centres undefined) was tested, and the NAD/ADPR ratio was inactive: 3. In the case of N#Cc1c(N)nc(N)nc1Nc1ccc(Br)cc1, the NAD/ADPR ratio was inactive: 3. With CCCCSc1cc(=O)[nH]c(N)n1 the NAD/ADPR ratio was inactive: 3. With CC(=O)Nc1cccc(NC(C)=O)n1 the NAD/ADPR ratio was inactive: 3. In the case of O=C1c2ccccc2C(O)(c2ccccc2)N1c1ccncc1 (centres undefined), the NAD/ADPR ratio was inactive: 3. In the case of NC(=O)c1cc(Br)cc(C2CCCCC2)c1O, the NAD/ADPR ratio was inactive: 3. In the case of CCOC(=O)CCC1(C(=O)OC)C(=O)CCCCC/C=C/1C(=O)OC (centres undefined), the NAD/ADPR ratio was inactive: 3. In the case of O=C1c2ccccc2NC(c2cc(Cl)cc(Cl)c2O)N1CCc1ccccn1 (centres undefined), the NAD/ADPR ratio was inactive: 3. With Nc1ccc2c(c1)N=[N+]([O-])c1cc(N)ccc1C2 the NAD/ADPR ratio was inactive: 3. For CSc1cccc(NC(=O)OC2CCCCCCCCCCC2)c1, the NAD/ADPR ratio was inactive: 3. For Cc1nc(-c2ccccc2)c(Cc2ccccc2O)c(=O)[nH]1, the NAD/ADPR ratio was inactive: 3. With CN(NC(=O)C(=O)NCc1ccco1)C(=O)NC1CCCCC1 the NAD/ADPR ratio was inactive: 3. Cc1cc(N)c2cc(NC(=O)/C=C/c3ccccc3Cl)ccc2n1 was tested, and the NAD/ADPR ratio was inactive: 3. O=C(O)c1cc(Cl)n[nH]c1=O was tested, and the NAD/ADPR ratio was inactive: 3.
